Measurements published in US20130011479A1, “DOUBLE-LAYER PHARMACEUTICAL FORMULATIONS CONTAINING OPIOID AGONISTS AND ANTAGONISTS” (L. MOLTENI & C. DEI FRATELLI ALITTI SOCIETA' DI ESERCIZIO …, priority 2010, published 2013).

Experiment: Intrathecal screening of patients treated with opioids: adverse events / side-effects monitored at several time points
Type: in vivo
Set-up: key: (0) = none; (1) = mild; (2) = moderate; (3) = intense; (4) = severe
Settings: without naltrexone
Procedure: A dose of opioids was administered with or without naltrexone and the adverse events or side-effects and anti-nociceptive effects were monitored at several time points.
In particular, patients with chronic (non-oncological) spinal pain and oncological patients in the non-terminal phase with evidence of side effects after minimum doses of opioids were monitored.

For CN1CC[C@]23c4c5ccc(O)c4O[C@H]2[C@@H](O)C=C[C@H]3[C@H]1C5 [morphine], the urinary retention (Algoneurodystrophy, 6-8 h) was “retention (1)”, the urinary retention (Lumbago, 6 h) was 3 and the urinary retention (Lumbago, 8 h) was “pruritus (3), urinary retention (3)”. For the same molecule, the urinary retention (Lumboischialgia in diabetic patients (VAS 6-7)) was “appetite, urinary retention,”, the urinary retention (Right lumboischialgia) was “ing (2), urinary retention (2)” and the urinary retention (Secondary bone and marrow malignancies (patient at r66)) was “urinary retention (2)”.
